Source: PubChem BioAssay AID504467 (National Center for Advancing Translational Sciences (NCATS), 2011)
The campaign covered roughly 330,000 compounds. About 7,700 (2.3%) were called active. This list was built around the results that the source calls inconclusive (neither active nor inactive); the mix of calls is not that of the screen. The call rests on the fitted dose curve; in most records, active means well fitted inhibition curve with a large enough effect; inconclusive means small, poorly fitted or top-dose-only effect, or effect the other way; inactive means flat fitted curve, though single readings scatter. A potency beside an inconclusive call is a rough fit, not a confirmed value.

Assay: qHTS screen for small molecules that inhibit ELG1-dependent DNA repair in human embryonic kidney (HEK293T) cells expressing luciferase-tagged ELG1; further: nearly all actives have a fitted effect of over 55% in size
Settings: HEK293T ELG1-luciferase reporter, luminescence, 16 h, DNA damage induced by 5-fluorouridine; series mostly up to 46.1 µM
In short: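 Reporter activity after DNA damage by 5-fluorouridine is monitored. Compound-treated cells incubate 16 hr at 37 °C, then ONE-Glo is added for 30 min before luminescence reading.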
Potency means the concentration at half of the fitted maximal effect.

Row | SMILES | Potency
1 | O=C(CN1C(=O)C2CC=CCC2C1=O)Nc1nc(-c2ccc(F)cc2)cs1 (stereo not drawn) | inconclusive: 18.3 µM [inhibitor, partial curve, poor fit]
2 | COc1ccc(OC)c(-c2nnc3n2N=C(c2ccc(OC)c(OC4CCCC4)c2)CS3)c1 | inconclusive: 11.6 µM [inhibitor, partial curve, poor fit]
3 | O=C(Nc1ccc(Nc2ccccc2)cc1)C1CC1 | inconclusive: 18.4 µM [activator, single point]
4 | Cc1ccc(-c2noc(CCC(=O)N3CCCc4ccccc43)n2)cc1 | inconclusive: 35.5 µM [inhibitor, single point]
5 | CC(=O)C(Sc1nccc(-c2cccs2)n1)C(C)=O | inconclusive: 23.1 µM [activator, single point]
6 | CCC(=O)N1CCc2cc(S(=O)(=O)CCC(=O)N3CCN(c4ccc(Cl)cc4)CC3)ccc21 | inconclusive: 0.13 µM [activator, full curve, poor fit]
7 | CCOCCCNC(=O)C1CCN(c2cc(C)nc3c(-c4ccc(OC)c(OC)c4)c(C)nn23)CC1 | active: 2.59 µM
8 | Cc1oc(-c2ccc(Cl)cc2)nc1CN1CCC(C(=O)N2CCc3ccccc3C2)CC1 | inconclusive: 18.4 µM [inhibitor, partial curve]
9 | CCOc1ccc(NC(=O)c2c(NC(=O)CNCCN3CCOCC3)sc3c2CCC3)cc1 | inconclusive: 20.6 µM [inhibitor, single point]
10 | Cc1ccc(NC(=O)c2cccc(N3C(=O)C4C5C=CC(C5)C4C3=O)c2)cc1C (stereo not drawn) | inconclusive: 29.1 µM [inhibitor, single point]
11 | Cc1nc2ccc(NS(=O)(=O)c3ccc(F)c(F)c3F)cc2s1 | inconclusive: 9.2 µM [inhibitor, partial curve, poor fit]
12 | O=[N+]([O-])c1ccc2nc(NS(=O)(=O)c3ccccc3[N+](=O)[O-])sc2c1 | inconclusive: 16.4 µM [activator, single point]
13 | Cc1cccn2c(=O)c(/C=C(\C#N)C(=O)NCc3ccco3)c(N3CCC(C(N)=O)CC3)nc12 | inconclusive: 29.1 µM [inhibitor, single point]
14 | CC1=CC(C)(C)Nc2ccc(Cc3ccc4c(c3)C(C)=CC(C)(C)N4)cc21 | inconclusive: 18.3 µM [inhibitor, partial curve]
15 | CCOc1ccc(N2C(=O)CC(SCCN)C2=O)cc1 (stereo not drawn) | inconclusive: 4.11 µM [activator, full curve]
16 | O=C(CSc1nc2c(sc3ccccc32)c(=O)n1CCCN1CCCC1)NCc1ccccc1 | inactive
17 | CCN(CC)P(=O)(Nc1ccc(C)cc1Br)c1ccc(N(C)C)cc1NC(=O)c1ccco1 (stereo not drawn) | inconclusive: 23.1 µM [inhibitor, single point]
18 | NC(=O)c1nsc(C(=O)N(c2ccccc2)C(C(=O)NCC2CCCO2)c2ccc3ncccc3c2)c1N (stereo not drawn) | inconclusive: 20.6 µM [inhibitor, partial curve, poor fit]
19 | O=C(Nc1ccc(N2C(=O)C3C4C=CC(C4)C3C2=O)cc1Cl)c1cccs1 (stereo not drawn) | inconclusive: 18.3 µM [activator, partial curve, poor fit]
20 | CS(=O)(=O)c1ccc(C(=O)Nc2ccccc2Cl)cc1 | inconclusive: 25.9 µM [inhibitor, single point]
21 | COc1ccc(/C=C/C(=O)NNC(=O)c2cc(C)oc2C)cc1 | inactive

Row | SMILES | Potency
22 | COc1ccc(Nc2nnc(-c3ccc(O)cc3)c3ccccc23)cc1 | inconclusive: 9.2 µM [inhibitor, partial curve]
23 | CCN(CC)S(=O)(=O)c1cccc(C(=O)Nc2cc(C)nn2-c2ccccc2)c1 | active: 23.1 µM
24 | CCOC(=O)C1(C)C(C(=O)OC)=C(c2ccc(OC)cc2)c2ccccc2N1C(=O)OC (stereo not drawn) | inconclusive: 16.4 µM [inhibitor, single point]
25 | C/C=C\C(=O)Nc1cccc(C2=NOC3(C2)C[C@@H](C(N)=O)N(C(=O)CC(c2ccccc2)c2ccccc2)C3)c1 (stereo partly drawn) | inconclusive: 9.2 µM [inhibitor, partial curve, poor fit]
26 | OCCC1CN(Cc2c(O)ccc3ccccc23)CCN1CCc1ccccc1 (stereo not drawn) | inactive
27 | Cc1cc(NCCN2CCOCC2)n2nc(C)c(-c3ccc(Cl)cc3)c2n1 | inactive
28 | COc1cc(/C=C/C(=O)OC(C)C(=O)Nc2ccc(Cl)cn2)ccc1OC(F)F (stereo not drawn) | inconclusive: 23.1 µM [inhibitor, single point]
29 | Brc1ccc(CNCC2CCCO2)cc1 (stereo not drawn) | inconclusive: 2.31 µM [inhibitor, partial curve, poor fit]
30 | CC(=O)N1N=C(c2ccco2)CC1c1ccc(Cl)o1 (stereo not drawn) | inactive
31 | OC1(c2cccc(C(F)(F)F)c2)CCN(c2ccc(-c3ccccc3)nn2)CC1 | inconclusive: 5.17 µM [activator, full curve]
32 | NC(=O)c1c(NC(=O)c2cccnc2)sc2c1CCCCC2 | inconclusive: 2.59 µM [activator, full curve]
33 | CCCn1c(C(C)Nc2nc(-c3cccc(Br)c3)cs2)nc2ccccc21 (stereo not drawn) | inconclusive: 2.59 µM [activator, single point]
34 | O=C(c1ccc(S(=O)(=O)N2CCCCC2)cc1)N1CCN=C1SCc1cccnc1 | inconclusive: 7.31 µM [inhibitor, partial curve, poor fit]
35 | N#C/C(=N\Nc1ccc(Br)cc1)C(=N)N1CCOCC1 | inconclusive: 16.4 µM [activator, partial curve]
36 | CCCn1c(=N)n(CC(=O)c2cccs2)c2ccccc21 | inactive
37 | O=[N+]([O-])c1cccc2ncccc12 | inconclusive: 25.9 µM [inhibitor, single point]
38 | Cc1ccc(/C=C2\SC(=S)N(C3CCS(=O)(=O)C3)C2=O)o1 (stereo not drawn) | inconclusive: 18.3 µM [inhibitor, single point]
39 | O=C(c1cnn(-c2cccc(F)c2)c1)c1ccccc1O | inconclusive: 16.4 µM [activator, partial curve]
40 | Cc1cc(N2CCN(c3nc4ccccc4s3)CC2)n2ncnc2n1 | inconclusive: 20.6 µM [inhibitor, single point]
41 | C=CCOc1ccc(C2/C(=C(\O)c3ccc(F)cc3)C(=O)C(=O)N2CCCN(C)C)cc1 (stereo not drawn) | inconclusive: 32.6 µM [activator, partial curve, poor fit]
42 | O=C(Cc1ccccc1)NCCCc1ccccc1 | inconclusive: 16.4 µM [activator, single point]

Row | SMILES | Potency
43 | Cc1cccc(/C=N/NC(=O)Cc2ccc(Cl)cc2)c1O | inconclusive: 23.1 µM [inhibitor, partial curve, poor fit]
44 | COc1ccc2c(c1)OC(O)(C(F)F)CC2=O (stereo not drawn) | inactive
45 | O=C(Nc1ccccc1)C(=O)Nc1ccc2c(c1)N(C(=O)C1CC1)CCC2 | inconclusive: 0.58 µM [activator, partial curve, poor fit]
46 | O=C(/C=C\c1ccccc1)Nc1nccs1 | inconclusive: 1.03 µM [activator, full curve]
47 | COC(=O)C(Cc1ccc(OC(=O)c2ccc(C)cc2)cc1)N1Cc2ccccc2C1=O (stereo not drawn) | inconclusive: 25.9 µM [activator, partial curve]
48 | Cc1cccc(C)c1NC(=S)N(Cc1ccccc1)Cc1cccs1 | inconclusive: 32.6 µM [inhibitor, partial curve, poor fit]
49 | COc1ccc(C(=O)C2CCCN(Cc3cnc(N4CCOCC4)s3)C2)cc1F (stereo not drawn) | inconclusive: 13 µM [inhibitor, partial curve, poor fit]
50 | COc1ccccc1N1CCN(CC(O)COc2ccc(S(=O)(=O)N3CCOCC3)cc2)CC1 (stereo not drawn) | active: 10.3 µM
51 | Cn1c(=O)c2c(nc(CN3CCC(C(N)=O)CC3)n2CCCc2ccccc2)n(C)c1=O | inactive
52 | CC(C)(C)c1ccc(-c2ncccc2O)cc1 | inconclusive: 23.1 µM [activator, single point]
53 | O=C(Nc1ccc2c(c1)C(=O)NC2=O)c1ccc2ncsc2c1 | inconclusive: 16.4 µM [activator, partial curve]
54 | CC(=O)c1ccc(NC(=S)NC(=O)/C=C/c2ccc(F)cc2)cc1 | inconclusive: 16.4 µM [activator, single point]
55 | COc1ccc(S(=O)(=O)Nc2ccc(Cc3ccncc3)cc2)cc1C | inconclusive: 9.2 µM [inhibitor, partial curve]
56 | Cc1ccc(NC(=O)NCCCN2CCCC2=O)cc1 | inconclusive: 18.4 µM [activator, single point]
57 | COc1cccc(CNC(=O)c2ccccc2SCC(=O)N2CCCC2)c1 | inactive
58 | Cn1nc([N+](=O)[O-])c2c(-c3nc4ccccc4s3)c(N)n(C3CCCCC3)c2c1=O | inconclusive: 1.64 µM [inhibitor, full curve]
59 | CC(OC(=O)Cn1[nH]c(=O)c2ccccc2c1=O)C(=O)c1ccccc1 (stereo not drawn) | inconclusive: 25.9 µM [activator, partial curve, poor fit]
60 | Cc1ccc(S(=O)(=O)Nc2cccc(C(=O)NCC(c3ccccc3)N(C)C)c2)cc1F (stereo not drawn) | inactive
61 | C=CCN1C(=O)C(O)(CC(=O)c2ccc(OC)cc2OC)c2cc(Br)ccc21 (stereo not drawn) | inactive
62 | Cc1ccc(Nc2nc(CSc3nnc(-c4ccncc4)n3C)cs2)cc1 | inconclusive: 2.59 µM [activator, partial curve]
63 | Cc1ccc(S(=O)(=O)c2nc(S(=O)(=O)c3ccc(C)cc3)c(N3CCN(CCO)CC3)s2)cc1 | inconclusive: 25.9 µM [inhibitor, partial curve, poor fit]

In another format: 2 of the compounds above
COC(=O)C(Cc1ccc(OC(=O)c2ccc(C)cc2)cc1)N1Cc2ccccc2C1=O (stereo not drawn)
  Potency: inconclusive: 25.9 µM [activator, partial curve]
Cc1cccc(C)c1NC(=S)N(Cc1ccccc1)Cc1cccs1
  Potency: inconclusive: 32.6 µM [inhibitor, partial curve, poor fit]

An excerpt of these results, field by field.
COc1ccc(OC)c(-c2nnc3n2N=C(c2ccc(OC)c(OC4CCCC4)c2)CS3)c1
  Potency: inconclusive: 11.6 µM [inhibitor, partial curve, poor fit]
COc1cc(/C=C/C(=O)OC(C)C(=O)Nc2ccc(Cl)cn2)ccc1OC(F)F (stereo not drawn)
  Potency: inconclusive: 23.1 µM [inhibitor, single point]
